{"sequences": {"note": "Protein sequences, listed by entry. Tags and fused reporters are not part of them.", "UniProt O31498": "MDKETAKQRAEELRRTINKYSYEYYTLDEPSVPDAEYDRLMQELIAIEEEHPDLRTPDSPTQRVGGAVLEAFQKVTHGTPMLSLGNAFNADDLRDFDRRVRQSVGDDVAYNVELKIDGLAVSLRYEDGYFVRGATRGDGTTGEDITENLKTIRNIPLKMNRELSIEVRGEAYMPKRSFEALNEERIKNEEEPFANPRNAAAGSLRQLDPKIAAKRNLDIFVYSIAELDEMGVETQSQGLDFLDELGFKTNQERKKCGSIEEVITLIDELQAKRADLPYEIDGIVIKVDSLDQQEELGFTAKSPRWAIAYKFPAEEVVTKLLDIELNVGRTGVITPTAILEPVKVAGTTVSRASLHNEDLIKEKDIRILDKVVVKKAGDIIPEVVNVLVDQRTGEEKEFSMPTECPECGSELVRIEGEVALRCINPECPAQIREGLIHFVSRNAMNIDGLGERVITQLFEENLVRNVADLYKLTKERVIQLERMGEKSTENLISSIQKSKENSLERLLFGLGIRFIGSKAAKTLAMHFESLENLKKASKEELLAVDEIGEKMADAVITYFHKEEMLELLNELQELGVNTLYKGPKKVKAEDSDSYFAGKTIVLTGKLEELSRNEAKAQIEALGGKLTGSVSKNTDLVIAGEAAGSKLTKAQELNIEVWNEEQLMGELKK"}, "source": "paper PMC5397179", "experiment_in_all_cases": "affinity purification with mass spectrometry; biotinylated purified bait on streptavidin-coated magnetic beads; prey: DNA/RNA-depleted extract of B. subtilis 168; relative ion scores against a 'no bait' pulldown; only the target purified", "key": {"[1]": {"target": "T1, Biotinylated PcrA-Ct (residues 653-724 of Geobacillus stearothermophilus PcrA) (Geobacillus stearothermophilus) (UniProt P56255)", "T1 sequence (chain, biotin)": "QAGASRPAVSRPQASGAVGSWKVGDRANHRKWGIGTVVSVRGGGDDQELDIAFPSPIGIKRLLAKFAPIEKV"}, "[2]": {"target": "T2, Biotinylated full length PcrA (Geobacillus stearothermophilus), wild type (Geobacillus stearothermophilus) (UniProt P56255)", "T2 sequence (chain, biotin)": "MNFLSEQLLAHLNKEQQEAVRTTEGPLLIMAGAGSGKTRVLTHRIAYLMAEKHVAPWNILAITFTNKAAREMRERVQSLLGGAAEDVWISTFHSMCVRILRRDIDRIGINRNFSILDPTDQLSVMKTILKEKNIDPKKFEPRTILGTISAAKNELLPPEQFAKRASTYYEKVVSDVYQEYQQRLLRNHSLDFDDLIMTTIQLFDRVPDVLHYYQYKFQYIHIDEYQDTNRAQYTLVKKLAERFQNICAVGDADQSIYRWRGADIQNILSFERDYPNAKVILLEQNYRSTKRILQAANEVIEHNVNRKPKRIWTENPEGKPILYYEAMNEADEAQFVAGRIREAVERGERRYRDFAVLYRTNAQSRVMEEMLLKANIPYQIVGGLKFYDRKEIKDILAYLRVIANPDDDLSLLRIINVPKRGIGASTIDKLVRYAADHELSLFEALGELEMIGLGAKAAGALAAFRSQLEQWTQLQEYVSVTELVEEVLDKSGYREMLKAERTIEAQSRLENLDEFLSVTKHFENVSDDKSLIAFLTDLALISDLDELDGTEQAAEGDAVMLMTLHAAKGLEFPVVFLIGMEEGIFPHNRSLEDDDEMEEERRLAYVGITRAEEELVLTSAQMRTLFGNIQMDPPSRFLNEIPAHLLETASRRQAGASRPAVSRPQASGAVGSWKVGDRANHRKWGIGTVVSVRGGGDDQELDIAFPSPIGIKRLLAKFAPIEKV"}, "[3]": {"target": "T3, Biotinylated full length PcrA K712A (Geobacillus stearothermophilus) (UniProt P56255)", "T3 sequence (chain, biotin)": "T2 sequence (chain, biotin) with K712A"}, "[4]": {"target": "T4, Biotinylated full length PcrA L714A (Geobacillus stearothermophilus) (UniProt P56255)", "T4 sequence (chain, biotin)": "T2 sequence (chain, biotin) with L714A"}}, "note": "Substitutions are numbered along the chain they refer to. Results are given in words; binding and its absence hold for the method and conditions named. Binding seen in cells or lysates may run through a third protein. A yes stands for co-enrichment or nearness to the bait. Other partners may have been found."}
{"substance": "LigA (NAD+-dependent DNA ligase), Bacillus subtilis (from UniProt O31498 1-668) (enzyme)", "values": [{"measurement": "binding", "setting": "[1]", "result": "binds weakly"}, {"measurement": "binding", "setting": "[2]", "result": "binds"}, {"measurement": "binding", "setting": "[3]", "result": "binds"}, {"measurement": "binding", "setting": "[4]", "result": "binds"}]}
